The text below walks through data of patent publication US20220175955A1 (Torque Therapeutics Inc., priority 2018, published 2022).

Plain letter strings leave the end groups untold.

Data set [1] in a line: general procedure: Fmoc solid-phase peptide synthesis; preloaded Fmoc-amino acid-Wang resin. To be noted: whole synthesis, trifluoroacetic acid salt.
The nature of data set [2]: general procedure: Fmoc solid-phase peptide synthesis; Fmoc-Leu-Wang. Particulars: whole synthesis, TFA salt.
The nature of data set [3]: general procedure: Fmoc solid-phase peptide synthesis; Fmoc-Arg(Pbf)-Wang. To be noted: whole synthesis, scale 0.5 mmol, TFA salt.
A short description of data set [4]: general procedure: Fmoc solid-phase peptide synthesis; Fmoc-Val-Wang. Particulars: whole synthesis, scale 0.22 mmol, TFA salt.
The nature of data set [5]: general procedure: Fmoc solid-phase peptide synthesis; Fmoc-Thr(tBu)-Wang. To be noted: whole synthesis, scale 0.5 mmol, TFA salt.

Regarding C(Npys)SIIVFEKL, in data set [1], the “final HPLC purity” value was over 94% and the isolated yield was 88%. Also, the isolated mass in data set [2] (scale 0.25 mmol) came to 256.0 mg.
As for CISQAVHAAHAEINEAGR, in data set [1], the “final HPLC purity” value is given as over 95% and the isolated yield was 33%. For the same substance, the isolated mass in data set [3] was determined as 305 mg.
For the substance CKGPRNQDWL, in data set [1], the “final HPLC purity” value was over 95% and the isolated yield turned out to be 65%. The isolated mass in data set [2] (scale 0.5 mmol) came to 392.8 mg.
Turning to CKVPRNQDWL, in data set [1], the “final HPLC purity” value is listed as over 95% and the isolated yield was determined as 56%. For the same substance, the isolated mass in data set [2] (scale 0.5 mmol) came to 349.5 mg.
With CLGGLLTMV, in data set [1], the “final HPLC purity” value was over 99% and the isolated yield is 50%. Moreover, the isolated mass in data set [4] amounted to 99.4 mg.
CSIINFEKL: in data set [1], the “final HPLC purity” value is over 95% and the isolated yield is given as 88%. For the same substance, the isolated mass in data set [2] (scale 0.5 mmol) was 470 mg.
The like results for CSIITFEKL were, in that order, over 95%, 27% and 142.2 mg.
Take CVLDGLDVLL: in data set [1], the “final HPLC purity” value is over 92% and the isolated yield was found to be 11%. In data set [2] (scale 0.21 mmol), the isolated mass amounted to 23.4 mg.
In the case of CYMLDLQPETT, in data set [1], the “final HPLC purity” value is listed as over 99% and the isolated yield was 18%. Also, in data set [5], the isolated mass came to 121.4 mg.
